# In all, about 400,000 compounds went through this assay and about 13,000 (3.2%) were called active. The shares of active, inactive and inconclusive entries below differ from those in the screen. The call rests on the fitted dose curve; in most records, active means well fitted cell-killing curve with a large enough effect; inconclusive means small, poorly fitted or top-dose-only effect, or effect the other way; inactive means flat fitted curve, though single readings scatter. Potencies of inconclusive entries are doubtful fits and often do not repeat.
# Assay: qHTS assay for MDR1-selective chemotherapeutics: Primary screen using the drug-selected MDR subline cells KB-V1; further: nearly all actives have a fitted effect of over 60% in size
# Details: KB-V1 MDR cells viability, CellTiter-Glo, 72 h; series mostly up to 46.1 µM
# In short: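 KB-V1, DMEM (no phenol red) + 10% FBS; cpd pin-transferred, titration series; 72 h, 37 degrees C; CellTiter-Glo, luminescence. Data normalized, curve-fit.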
# Potency means the concentration at half of the fitted maximal effect.
row,SMILES,Potency
1,O=C(CCCCCCC(=O)c1ccccc1)c1ccccc1,"inconclusive: 0.731 µM [cytotoxic, full curve, poor fit]"
2,CCN1C(=O)C2C(c3cccc(F)c3)NC(CC)(C(=O)OC)C2C1=O (configuration not stated),"inconclusive: 25.9 µM [cytotoxic, partial curve, poor fit]"
3,CCCCNS(=O)(=O)c1ccc(S(=O)(=O)N2CCC3(CC2)OCCO3)cc1,active: 16.4 µM
4,CC1CCC2CCCCC2N1C(=O)c1cc([N+](=O)[O-])cc([N+](=O)[O-])c1 (configuration not stated),"inconclusive: 14.6 µM [cytotoxic, partial curve, poor fit]"
5,CCN(CC)S(=O)(=O)c1ccc(NS(=O)(=O)c2ccc(C)c(C)c2)cc1,"inconclusive: 16.4 µM [cytotoxic, partial curve, poor fit]"
6,O=c1c(OCc2ccccc2)cccn1Cc1ccccc1,"inconclusive: 13 µM [cytotoxic, partial curve]"
7,CC1CCN(c2oc(/C=C/c3ccc(F)cc3)nc2C#N)CC1,"inconclusive: 0.0411 µM [rising, full curve]"
8,CC1Cc2ccccc2N1Cc1cc(=O)c(OCC(=O)Nc2ccccc2)co1 (configuration not stated),"inconclusive: 7.31 µM [cytotoxic, full curve, poor fit]"
9,CCCOC(=O)c1ccc(Cn2nnc3sc4c(c3c2=O)CCC(C)C4)cc1 (configuration not stated),inactive
10,OC1(c2cccc(C(F)(F)F)c2)CCN(c2ncnc3c2[nH]c2ccccc23)CC1,"inconclusive: 8.2 µM [cytotoxic, partial curve, poor fit]"
11,Cc1ccc(/C(N)=N/OC(=O)N2c3ccccc3Sc3ccccc32)cc1,"inconclusive: 9.2 µM [cytotoxic, partial curve, poor fit]"
12,COc1ccccc1NC(=O)C1=C(C)Nc2nc(SCc3ccccc3)nn2C1c1cccnc1 (configuration not stated),inactive
13,CCOC(=O)c1cc(C#N)c(SCC(=O)c2cc(C#N)c(SC)nc2C)[nH]c1=O,"inconclusive: 29.1 µM [cytotoxic, single point]"
14,Cc1ccc(-c2csc(NC(=O)CSc3nc4ccccc4c(=O)n3CCCN(C)C)n2)cc1,"inconclusive: 29.1 µM [cytotoxic, single point]"
15,CCn1ncc(Cl)c1C(=O)Nc1cc(Cl)ccc1Cl,"inconclusive: 18.4 µM [cytotoxic, single point]"
16,CCOc1ccc(-c2nc(Cn3c(=O)cc(C)c4c(C)nn(-c5ccc(C)cc5)c43)c(C)o2)cc1,inactive
17,COc1ccc2nc(/C(C#N)=C\c3ccc(Oc4ccc([N+](=O)[O-])cn4)cc3)[nH]c2c1,"inconclusive: 5.17 µM [cytotoxic, partial curve]"

# A run of entries from further up, for reference:
row,SMILES,Potency
2,CCN1C(=O)C2C(c3cccc(F)c3)NC(CC)(C(=O)OC)C2C1=O (configuration not stated),"inconclusive: 25.9 µM [cytotoxic, partial curve, poor fit]"
3,CCCCNS(=O)(=O)c1ccc(S(=O)(=O)N2CCC3(CC2)OCCO3)cc1,active: 16.4 µM
4,CC1CCC2CCCCC2N1C(=O)c1cc([N+](=O)[O-])cc([N+](=O)[O-])c1 (configuration not stated),"inconclusive: 14.6 µM [cytotoxic, partial curve, poor fit]"
5,CCN(CC)S(=O)(=O)c1ccc(NS(=O)(=O)c2ccc(C)c(C)c2)cc1,"inconclusive: 16.4 µM [cytotoxic, partial curve, poor fit]"
